Primary screen of a compound library

Chains of the proteins cited; added tags and fusions are not shown.
UniProt E9BF75, entry or part of it: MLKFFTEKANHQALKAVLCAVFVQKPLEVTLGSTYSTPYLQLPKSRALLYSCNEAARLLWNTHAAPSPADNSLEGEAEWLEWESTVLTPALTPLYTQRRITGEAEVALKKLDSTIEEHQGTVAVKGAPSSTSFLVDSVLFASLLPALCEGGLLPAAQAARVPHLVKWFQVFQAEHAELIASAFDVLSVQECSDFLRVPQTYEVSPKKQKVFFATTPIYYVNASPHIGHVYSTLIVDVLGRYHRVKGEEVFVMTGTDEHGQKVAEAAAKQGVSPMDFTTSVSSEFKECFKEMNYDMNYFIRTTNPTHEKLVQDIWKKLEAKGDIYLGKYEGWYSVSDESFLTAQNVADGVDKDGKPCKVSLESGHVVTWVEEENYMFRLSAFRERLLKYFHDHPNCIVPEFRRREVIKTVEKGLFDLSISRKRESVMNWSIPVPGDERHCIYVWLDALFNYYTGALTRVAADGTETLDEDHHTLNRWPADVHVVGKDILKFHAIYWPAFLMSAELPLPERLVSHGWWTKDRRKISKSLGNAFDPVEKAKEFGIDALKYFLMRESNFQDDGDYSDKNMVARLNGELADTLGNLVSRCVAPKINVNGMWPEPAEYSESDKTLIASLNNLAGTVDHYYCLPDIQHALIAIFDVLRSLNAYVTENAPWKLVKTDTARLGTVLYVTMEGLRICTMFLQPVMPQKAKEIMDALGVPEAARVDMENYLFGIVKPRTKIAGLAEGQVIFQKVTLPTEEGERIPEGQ

The values are deposited in ChEMBL (CHEMBL3988442, “University of Dundee, Small-Polar-MMV Screening Library” (2021)).

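Primary screen of methionyl-tRNA synthetase; the read-out is not stated. Target: Methionyl-tRNA synthetase (putative), Leishmania donovani (UniProt E9BF75). The test concentration is not given. The values are filed as inhibition. About 68,000 compounds were tested under these conditions; 0.035% (about 24) showed 50% or more at least once.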

All values are in %. How 0% and 100% were set is not recorded. Most values in the screen are low, and negative values occur. The compounds are a random part of those screened.

Result for COc1cccc(CC(=O)N2CCCSCC2CN2CCCC2)c1 (stereo not shown) was 17.27%. CS(=O)(=O)CC(=O)N1C[C@H]2CCC[C@@]2(COc2ccccn2)C1 gave 2.933%. With O=C(CC1CC1)N1CCCn2c(nnc2Cn2cccc2)C1 the screen gave 12.68%. Cc1nc(C)n(CC2CCCN(CCOc3ccc(F)cc3)C2)n1 (stereo not shown) read 20.51%.

For CCCn1nc2c(cc1=O)CN(CCCN1CCCC1=O)CC2 the result was 6.536%. With Cc1nc(C2(NCc3ccc(C#N)cc3F)CCCCC2)no1 the screen gave 6.738%. CCNC(=O)NCc1ccc(-n2ccc(C(F)(F)F)n2)cc1 read 17.23%. CCc1ncnc2c1CCN(C(=O)c1ccncc1F)CC2 gave 7.937%.

With CCCC1c2ccccc2CCN1CCS(C)(=O)=O (stereo not shown) the screen gave 7.542%. With Cc1ccc(NC(=O)c2nc3c(s2)CCCN3C(=O)C2CC2)cn1 the screen gave -4.762%. Result for Cc1cc(C(=O)NCCc2c(C)nn(C)c2C)nc(N2CCCCC2)n1 was 5.161%. With CCCN1CCCN(CCCOc2cccc(C#N)c2)CC1 the screen gave 7.459%.

For O=C(NC[C@H]1OC[C@@H]2CCN(c3ccccn3)C[C@@H]21)c1ccco1 the result was 10.95%. With O=C(Cn1ccc2sccc2c1=O)NCc1ccc2c(c1)OCO2 the screen gave 19.61%. With O=C(NS(=O)(=O)c1ccc(Cl)cc1F)c1cccc2c1OCCO2 the screen gave 13.77%. With CNC(=O)c1cccc(CCNC2CCSc3ccccc32)c1 (stereo not shown) the screen gave 3.141%.

With CN1C(=O)CC(c2cnn(C)c2)C12CCN(C(=O)c1cscn1)CC2 (stereo not shown) the screen gave 4%. COCCn1cc(C(=O)N2CCCC(n3cncn3)C2)ccc1=O (stereo not shown) read 5.842%. With CN(CCNC(=O)NCc1ccsc1)C1CCCC1 the screen gave 5.215%. For COc1ccc(CN2CCC3(CC2)CN(c2ccccn2)CCO3)cc1 the result was 4.301%.

Cc1cnn(CC2CCCN2C(=O)Cc2c(C)nc(C)[nH]c2=O)c1 (stereo not shown) gave 3.152%. Cc1nonc1C1CCCN1C(=O)c1cn2ccsc2n1 (stereo not shown) read 14.03%. O=C(NCc1ccccc1Cn1cncn1)C1CCCCC1 gave 20%. Result for CC(NC(=O)NCCn1ccnc1)c1nncn1C (stereo not shown) was 12.16%.

Cc1csc(C2CCCCN2C(=O)CN(C)Cc2ccccc2)n1 (stereo not shown) read 9.722%. For Cc1noc(C2CCCN(C(=O)c3cccc(Cl)c3)C2)n1 (stereo not shown) the result was 5.455%. Result for Cc1nnc(CN2CCN(C(C)c3nc(C4CC4)no3)CC2)o1 (stereo not shown) was 10.93%. Cc1ccc(F)c(C(=O)N2C[C@@H](C(=O)O)[C@H](c3ccccc3)C2)c1Cl gave 13.92%.

Result for COC(=O)N1CCN(C(=O)c2ccc(C)c(N3CCNC3=O)c2)CC1 was 2.235%. Cc1cccc(C(C(=O)NCc2cc(C)[nH]n2)N(C)C)c1 (stereo not shown) read 15.46%. With O=C(Nc1ccc(N2CCCC2)nc1)N1CCc2ccccc2C1 the screen gave 27.62%. For CC(C)CCN1C2(CCN(C(=O)N(C)C)C2)c2ccccc2S1(=O)=O (stereo not shown) the result was 10.68%.

With CCO[C@H]1CN(CC2CCOCC2)[C@@H]2CCCO[C@H]12 the screen gave 4.106%. With Cc1cc2c(cc1Cl)C=CC1(CCN(CC(=O)NC3CCCC3)CC1)O2 the screen gave 25.47%. CC(C)Oc1ccccc1C(=O)NCCc1nncn1C read 3.958%.

The first 2 entries again:

For COc1cccc(CC(=O)N2CCCSCC2CN2CCCC2)c1 (stereo not shown) the result was 17.27%.
For CS(=O)(=O)CC(=O)N1C[C@H]2CCC[C@@]2(COc2ccccn2)C1 the result was 2.933%.